This experiment can be described thus: qHTS Assay for Lipid Storage Modulators in Drosophila S3 Cells.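 For cell number change: cells counted by Cell Tracker Red CMTPX staining in the red channel.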 To be noted: BODIPY lipid droplet fluorescence, 18-24 h; for cell number change: measured here: cell count max response, cells fed with added oleic acid. An outline of the steps:
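Laser-scanning cytometry quantifies lipid droplet accumulation (500–530 nm total intensity; droplet/cell object ratio) in oleic acid-fed (400 uM added) Drosophila S3 cells treated with a concentration series. 20 uM Triacsin C defined 100% inhibition.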

Setting [1] is: measured here: lipid fluorescence (Fed channel) AC50, cells fed with added oleic acid.
The mark [2] stands for this setting: measured here: cell number channel AC50, cells fed with added oleic acid.

The list shows a part of the results. The main result of the screen is listed elsewhere. These columns were measured beside it and carry no call. Compounds called inactive in the main read-out are mostly missing here. Potencies come from curve fits of mixed quality, noted in brackets.

We go through 58 molecules from PubChem BioAssay AID2685 (National Center for Advancing Translational Sciences (NCATS), 2010).

A word on the AC50: it is the midpoint of the concentration-response curve, whichever way the signal moves. Read a low AC50 as greater potency.

Consider `Cc1cccc(N2C(=O)CC(N3CCN(c4cccc(C(F)(F)F)c4)CC3)C2=O)c1` (stereo not drawn), for which the cell number change is -17.3%. Moreover, the AC50 under setting [1] was 29.1 µM [rising, single point].

Turning to `COC(=O)C(Cc1ccccc1)NC(=O)CNS(=O)(=O)c1ccc(Br)cc1` (stereo not drawn), the cell number change is 16.4%.

On to `COC(=O)CC(=O)CSc1nc2c(cc1C#N)CCC2`, for which the cell number change is 2.7%. The AC50 under setting [1] was 9.2 µM [rising, partial curve].

For the molecule `COc1cc(/C=C2/C(=N)N3N=C(CC(=O)N4CCOCC4)SC3=NC2=O)ccc1OCc1ccccc1`, the cell number change was determined as 28.7%. Moreover, the concentration at half-maximal activity (AC50) under setting [1] was 29.1 µM [rising, single point].

Consider `Cc1oc(C(=O)O)cc1CSCc1ccoc1C(=O)O`, for which the cell number change was -33.7%. Further, the AC50 under setting [2] is 29.1 µM [falling, partial curve, poor fit]. Besides, the half-maximal activity concentration (AC50) under setting [1] was 25.9 µM [falling, partial curve].

Take `COc1ccc(S(=O)(=O)N2CCOC23CCN(C(=O)c2ccccc2Br)CC3)cc1`: the cell number change was found to be 40.3%. Further, the half-maximal activity concentration (AC50) under setting [2] is 20.6 µM [rising, partial curve].

Take `COc1ccc(Nc2cc(C)c3ccc(O)cc3n2)cc1`: the concentration at half-maximal activity (AC50) under setting [2] is 0.58 µM [rising, single point].

Take `COc1ccc2nc(NC(=O)CS(=O)(=O)c3ccc(C)cc3)sc2c1`: the cell number change turned out to be 19.7%. Moreover, the AC50 under setting [1] was 29.1 µM [falling, single point].

In the case of `COc1ccc(NC(=O)CSc2nc3ccccc3nc2N2CCOCC2)cc1`, the cell number change was -10.7%. Also, the concentration at half-maximal activity (AC50) under setting [1] was 29.1 µM [falling, single point].

`Cn1nnc(NC(=O)c2ccc([N+](=O)[O-])cc2Cl)n1`: the cell number change is -7.01%. For the same molecule, under setting [2], the AC50 was 0.103 µM [falling, full curve, poor fit].

For the molecule `CC(C)(C)c1ccc(NC(=O)COC(=O)c2ccc(CN3CCCC3=O)cc2)cc1`, the cell number change is 11.7%. Further, the half-maximal activity concentration (AC50) under setting [1] is 18.4 µM [rising, partial curve, poor fit].

Turning to `CCN1CCN(C(=O)c2cc(COc3ccc(C(C)=O)cc3OC)on2)CC1`, the cell number change is -4.58%.

Take `Cc1ccc(NC(=O)N2CCCC2C(=O)NCC2CCCO2)cc1` (stereo not drawn): the cell number change was determined as 22%. Also, the concentration at half-maximal activity (AC50) under setting [2] is 2.31 µM [rising, partial curve, poor fit].

With `O=C(CSc1nc2ccccc2o1)N/N=C/c1ccccc1C(=O)O`, under setting [1], the concentration at half-maximal activity (AC50) is 36.6 µM [falling, single point].

In the case of `COc1ccc(/C=C(\C#N)c2nc3ccccc3[nH]2)cc1O`, the cell number change was -14.7%. For the same molecule, under setting [1], the AC50 is 29.1 µM [falling, single point].

For the molecule `CCCCNc1nc2cccnc2s1`, the cell number change amounted to 56.1%. In addition, under setting [2], the concentration at half-maximal activity (AC50) is 20.6 µM [rising, partial curve].

On to `CCN(CC)c1ccc(S(=O)(=O)N2CCOCC2)cc1NC(=O)CSc1cccc[n+]1[O-]`, for which the cell number change amounted to 80.2%. Besides, the AC50 under setting [2] was 16.4 µM [rising, single point]. Besides, under setting [1], the AC50 was 18.4 µM [rising, partial curve].

As for `CCCCOC(=O)c1ccc(NC(=O)C(=O)NCC2CCCO2)cc1` (stereo not drawn), the cell number change was 1.92%.

Regarding `CCOC(=O)c1c(NC(=O)CC)sc(C(=O)N2CCCCC2)c1C`, the AC50 runs as follows: under setting [2], 0.146 µM [rising, full curve]; under setting [1], 0.116 µM [rising, full curve, poor fit].

Take `Cc1ccc(SCC(=O)NCc2ccccc2)cc1`: the cell number change is -1.1%. Further, the AC50 under setting [1] is 0.58 µM [rising, single point].

For `COC(=O)C1C(O)=C(C=NCC(C)N=CC2=C(O)C(C(=O)OC)C(C)(C)CC2=O)C(=O)CC1(C)C` (stereo not drawn), the cell number change was determined as 0.113%. Besides, the AC50 under setting [1] is 29.1 µM [rising, single point].

In the case of `CCOC(=O)N1[C@@H]2C=C(C)[C@@H]2[C@@H]2[C@@H](C)C(=O)N21`, the cell number change is -21.4%. Also, the concentration at half-maximal activity (AC50) under setting [1] is 0.58 µM [falling, full curve, poor fit].

Turning to `CC(C)CN(C(=O)COC(=O)c1ccccn1)c1c(N)n(Cc2ccccc2)c(=O)[nH]c1=O`, the cell number change is -7.23%.

For the molecule `CCc1cc2c(=O)n(N)c(CCC(=O)O)nc2s1`, the cell number change amounted to 5.9%.

With `Cc1occc1-c1nnc(SCC(=O)N2CCN(c3ccc(F)cc3)CC2)n1C`, the cell number change is 33.2%. Besides, the half-maximal activity concentration (AC50) under setting [2] was 32.6 µM [rising, single point].

`C/C(=N\NC(=O)c1ccccc1OCCOc1ccccc1)c1ccccc1F`: the cell number change came out at 118%. In addition, the AC50 under setting [2] was 2.59 µM [rising, full curve].

Consider `O=C(CSc1nc2nc(-c3cccs3)cc(C(F)(F)F)c2c(=O)[nH]1)Nc1ccc(F)c(F)c1`, for which the cell number change came to 65%. For the same molecule, the AC50 under setting [2] is 29.1 µM [rising, single point].

For `O=C(Nc1ccccc1)c1ccccc1O`, the cell number change was -1.62%.

Consider `N=C1/C(=C\c2ccc(OC(=O)c3ccc(F)cc3)cc2)C(=O)N=C2SC(N3CCCC3)=NN12`, for which the cell number change came out at 9.8%. Also, under setting [1], the AC50 is 0.103 µM [rising, full curve, poor fit].

Take `CCc1nc2ccc(C(=O)N(C)CC(=O)Nc3ccc(Cl)c(C(F)(F)F)c3)cc2nc1CC`: the cell number change was -45.8%. Besides, the AC50 under setting [2] is 11.6 µM [falling, partial curve, poor fit]. Moreover, under setting [1], the concentration at half-maximal activity (AC50) was 7.31 µM [falling, partial curve, poor fit].

On to `COc1cc(NC(=S)NCCc2c[nH]c3ccccc23)c(OC)cc1Cl`, for which the cell number change is -25.8%. Also, the AC50 under setting [1] is 11.6 µM [falling, partial curve, poor fit].

Take `Cc1ccnc(NS(=O)(=O)c2ccc(NS(=O)(=O)c3ccc([N+](=O)[O-])cc3)cc2)n1`: the cell number change came out at 20.5%. The AC50 under setting [1] was 0.103 µM [falling, full curve, poor fit].

On to `CCOC(=O)N1CCN(C(=O)C2CCN(S(=O)(=O)c3ccc(F)cc3)CC2)CC1`, for which the cell number change is -54.2%. The AC50 under setting [2] is 29.1 µM [falling, partial curve, poor fit]. Besides, the AC50 under setting [1] is 23.1 µM [falling, partial curve].

Turning to `CCCCn1c(N)c(N(CC(C)C)C(=O)CSCc2c(C)noc2C)c(=O)[nH]c1=O`, the cell number change was 10.5%.

`CC1(C)OC1COc1c2ccoc2cc2oc(=O)ccc12` (stereo not drawn): the cell number change was determined as 26.8%. The AC50 under setting [2] is 3.66 µM [rising, full curve, poor fit]. The AC50 under setting [1] is 6.51 µM [rising, partial curve, poor fit].

`Clc1ccc(SCc2nc3ccccc3[nH]2)cc1`: the cell number change is -3.71%. The concentration at half-maximal activity (AC50) under setting [1] was 29.1 µM [falling, single point].

In the case of `COc1ccc(S(=O)(=O)Cc2ccc(C(=O)NCc3ccco3)o2)cc1`, the cell number change amounted to 5.93%. In addition, the AC50 under setting [1] is 20.6 µM [rising, partial curve].

On to `C=CCn1c(SCC(=O)c2cccs2)nc2sc(C)cc2c1=O`, for which the cell number change is -18%. Moreover, the half-maximal activity concentration (AC50) under setting [1] is 3.26 µM [rising, full curve].

As to `COC(=O)c1ccc(NC(=O)c2ccccc2N(C)S(=O)(=O)c2ccccc2)cc1`, the cell number change was found to be 53.1%. Besides, under setting [2], the AC50 is 20.6 µM [rising, single point].

Regarding `O=C(c1cccs1)N1CCN(S(=O)(=O)c2cccc(Cl)c2Cl)CC1`, the cell number change turned out to be 78.3%. The AC50 under setting [2] is 18.4 µM [rising, single point].

In the case of `CC(=O)NC(CC(=O)Nc1nccs1)c1ccccc1` (stereo not drawn), the cell number change is 18.2%. In addition, under setting [2], the AC50 was 0.0326 µM [rising, full curve, poor fit]. In addition, the AC50 under setting [1] was 0.0206 µM [rising, full curve, poor fit].

For the molecule `Cc1cc(N/N=C/c2ccccc2O)c2ccccc2n1`, the cell number change is -53.6%. Besides, the AC50 under setting [2] is 6.51 µM [falling, full curve]. For the same molecule, the half-maximal activity concentration (AC50) under setting [1] is 6.51 µM [falling, partial curve].

On to `CCCOc1ccc(/C=C/C(=O)Nc2ccc([N+](=O)[O-])cc2C)cc1`, for which the cell number change was 40.8%. Under setting [2], the concentration at half-maximal activity (AC50) is 29.1 µM [rising, single point]. For the same molecule, the AC50 under setting [1] is 23.1 µM [rising, single point].

As for `C=CCN(CC=C)C(=O)CN1C(=O)NC(C)(c2ccc3cc(OC)ccc3c2)C1=O` (stereo not drawn), the cell number change is 40.5%. Besides, the AC50 under setting [2] is 0.0326 µM [rising, full curve, poor fit].

For the molecule `CCC1Oc2ccc(C)cc2N(CC(=O)NCC2COc3ccccc3O2)C1=O` (stereo not drawn), the cell number change is 3.8%. In addition, under setting [1], the half-maximal activity concentration (AC50) is 8.2 µM [rising, partial curve, poor fit].

`CC(=O)Nc1ccc(NC(=O)c2ccccc2Sc2ccc([N+](=O)[O-])cc2Cl)cc1`: the cell number change was -34.7%. For the same molecule, the AC50 under setting [2] is 13 µM [falling, partial curve, poor fit]. Moreover, the concentration at half-maximal activity (AC50) under setting [1] is 5.8 µM [falling, partial curve].

As to `CN1CCN(S(=O)(=O)c2cccc(C(=O)Oc3cccc(C#N)c3)c2)CC1`, the cell number change was -19.7%. Further, the concentration at half-maximal activity (AC50) under setting [2] is 0.651 µM [falling, full curve, poor fit].

Take `COc1ccc(Cn2c(CCC(=O)Nc3ccc(C)c(C)c3)nc3cccnc32)cc1`: the cell number change was -113%.

For `COc1ccc(C2/C(=C(/O)c3ccccc3)C(=O)C(=O)N2c2ccccn2)c(OC)c1` (stereo not drawn), the cell number change worked out at 50%. The half-maximal activity concentration (AC50) under setting [2] was 0.0731 µM [rising, full curve, poor fit]. For the same molecule, under setting [1], the AC50 is 29.1 µM [rising, partial curve].

Regarding `CCc1ccc(NC(=O)C2CCCCC2C(=O)O)cc1` (stereo not drawn), the cell number change is -5.29%. For the same molecule, the AC50 under setting [2] was 0.731 µM [falling, full curve].

As for `O=C(Oc1ccc(Cl)c2cccnc12)c1ccco1`, the cell number change is -19.6%. Moreover, the half-maximal activity concentration (AC50) under setting [2] was 2.06 µM [falling, single point].

Regarding `COC(=O)c1cc(OC)c(OC)cc1NC(=O)Nc1ccc(OC)cc1OC`, the cell number change worked out at 3.44%. Moreover, the AC50 under setting [1] was 0.58 µM [rising, partial curve].

With `CC(c1ccccc1)N1C(=O)c2ccc(C(=O)NCc3cccnc3)cc2C1=O` (stereo not drawn), the cell number change came to 3.14%.

Consider `CCOc1ccc(C(=O)N2CCN(c3ccccc3)CC2)cc1OCC`, for which the AC50 under setting [2] was 0.146 µM [rising, full curve, poor fit].

`COC(=O)C1=C(C)N(c2ccc(Cl)cc2)/C(=C/c2cccs2)C1=O`: the cell number change was 130%. The AC50 under setting [2] was 3.26 µM [rising, full curve]. Also, the concentration at half-maximal activity (AC50) under setting [1] is 29.1 µM [rising, partial curve].

For `CCOc1ccc(C(=O)CCC(=O)NC2=NCCS2)cc1`, the cell number change was -9.89%. Under setting [1], the AC50 is 0.13 µM [falling, full curve, poor fit].

For the molecule `COc1ccc2c(=O)c(-c3nc(C)cs3)coc2c1`, the concentration at half-maximal activity (AC50) under setting [1] was 4.11 µM [rising, single point].

On to `CC(=O)Nc1ccc(S(=O)(=O)N2C3CCCC2CC(NC(=O)C2CCCCC2)C3)cc1` (stereo not drawn), for which the cell number change is -3.63%.
